For one molecule, binding results are on record in publication PMC6660512.

These are yes or no findings as the source states them, for the method shown. In cells and extracts the contact can be indirect. For some of these results: Binding can be weak; no strength is given. Sequences can lack the tags named with a protein.

Among the targets are His-tagged Nogo-A-Δ20; Nogo-A-Δ20 N; Nogo-A-Δ20C.
Assay in all cases: pull-down; IMAC (affinity chromatography) using His-tagged Δ20, its halves Δ20 N and Δ20C or RFP-tagged Δ20 min, with EGFP-tagged SPARC or its deletion mutants (Fig. 2f, g; Suppl. Figure 3c-e, 4b)
Experiment [1] addresses RFP-tagged minimal deleted Nogo-A(Δ20).

B1: EGFP-tagged SPARC (protein, UniProt P09486 18-303)
chain: APQQEALPDETEVVEETVAEVTEVSVGANPVQVEVGEFDDGAEETEEEVVAENPCQNHHCKHGKVCELDENNTPMCVCQDPTSCPAPIGEFEKVCSNDNKTFDSSCHFFATKCTLEGTKKGHKLHLDYIGPCKYIPPCLDSELTEFPLRMRDWLKNVLVTLYERDEDNNLLTEKQKLRVKKIHENEKRLEAGDHPVELLARDFEKNYNMYIFPVHWQFGQLDQHPIDGYLSHTELAPLRAPLIPMEHCTTRFFETCDLDNDKYIALDEWAGCFGIKQKDIDKDLVI
Consider B1, for which the binding result with His-tagged Nogo-A-Δ20 was “binds”; in experiment [1] it was “binds”; in the experiment with Nogo-A-Δ20 N it was “no binding”; with Nogo-A-Δ20C, “binds”.
